PubChem BioAssay AID1159578 | Peter MacCallum Cancer Centre, 2015

Screen: 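Knock-downs that alter how fast lymphatic endothelial cells migrate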 (primary screen)
Cells: human lymphatic endothelial cells
Reagents: siRNA pool against human genes, 40 nM
Duration: 48 h after transfection
Detection: 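Cells stained with dye and imaged after a scratch; covered wound area and nuclei counted, duplicates averaged, migration set against mock wells and turned into a robust z-score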
Scale: migration robust z-score: higher = faster migration into the scratch; nuclei per well: higher = more cells in the well
Active means: 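Migration changed when robust z exceeds 2 or falls below -2 and mean nuclei number is at least 3300; otherwise not called changed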
Calls: active = migration changed; inactive = no migration change, or too few cells
In all, the deposit lists about 18,000 reagents; shown is a random part of them. Of all reagents, about 1,030 (5.7%) were called active. 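Inactive calls also include pools with fewer than 3300 nuclei, whose migration was not assessed.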 The raw values are shown without normalisation. Not all columns of the deposit are shown.

After knock-down of DGKQ the results were migration robust z-score -0.62; migration class with cell-count check migration z between -2 and 2; enough cells; nuclei per well, duplicate mean 3939; inactive.
With knock-down of LDB3, the screen gave migration robust z-score 0.29; migration class with cell-count check migration z between -2 and 2; enough cells; nuclei per well, duplicate mean 5866; inactive.
Depletion of SEC14L2 resulted in: migration robust z-score 0.7; migration class with cell-count check migration z between -2 and 2; enough cells; nuclei per well, duplicate mean 4514; inactive.
Against MTPAP the deposit lists migration robust z-score 0.63; migration class with cell-count check migration z between -2 and 2; enough cells; nuclei per well, duplicate mean 6137; inactive.
ELMO1 showed migration robust z-score -1.13; migration class with cell-count check migration z between -2 and 2; enough cells; nuclei per well, duplicate mean 4950; inactive.
Against SLC27A5, the entry reads migration robust z-score 0.52; migration class with cell-count check migration z between -2 and 2; enough cells; nuclei per well, duplicate mean 5876; inactive.
HBQ1 gave migration robust z-score -1.1; migration class with cell-count check migration z between -2 and 2; enough cells; nuclei per well, duplicate mean 4662; inactive.

2 neighbouring entries from above, quoted:
SEC14L2 → migration robust z-score = 0.7; migration class with cell-count check = migration z between -2 and 2; enough cells; nuclei per well, duplicate mean = 4514; activity call = inactive
MTPAP → migration robust z-score = 0.63; migration class with cell-count check = migration z between -2 and 2; enough cells; nuclei per well, duplicate mean = 6137; activity call = inactive

The results go on:
NDUFAF6 gave migration robust z-score -0.59; migration class with cell-count check migration z between -2 and 2; enough cells; nuclei per well, duplicate mean 6616; inactive.
Against ID4, the values are migration robust z-score -0.34; migration class with cell-count check migration z between -2 and 2; enough cells; nuclei per well, duplicate mean 6545; inactive.
For ZFP37, the values are migration robust z-score -0.62; migration class with cell-count check migration z between -2 and 2; enough cells; nuclei per well, duplicate mean 6326; inactive.
For SEBOX, the values are migration robust z-score -1.34; migration class with cell-count check migration z between -2 and 2; enough cells; nuclei per well, duplicate mean 7200; inactive.
NHLRC3 showed migration robust z-score 1.2; migration class with cell-count check migration z between -2 and 2; enough cells; nuclei per well, duplicate mean 5525; inactive.
